Data as given in PubChem BioAssay AID1259415 (National Center for Advancing Translational Sciences (NCATS), 2018).
In all, about 410,000 compounds went through this assay and about 18,000 (4.4%) were called active. This list was built around the results that the source calls inconclusive (neither active nor inactive); the mix of calls is not that of the screen. Rule as the data show it: active = activity change below about -60%; inconclusive = no clear call, values can overlap the other calls; inactive = above about -39%.

Assay: qHTS Assay for inhibitors of the human cytomegalovirus (HCMV)
Details: HFF cells, HCMV-luciferase reporter, 72 h; at 57.5 µM; active compounds read low
In short: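 Luciferase read-out from HCMV-luciferase-infected HFFs (MOI 1 PFU/cell) 72 h post infection at 37C; compounds added after 16 h cell attachment; activity normalized between buffer-only basal and Salinomycin (10uM) inhibitor controls.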
% is scaled to controls: 0 for no effect and ±100 for the full control effect.

| SMILES | activity change, negative = inhibition |
| --- | --- |
| Cc1ccsc1C(=O)N1CCC1(C)C(=O)NCc1cccc2ccccc12 (stereo not drawn) | inconclusive: -53.6% |
| Cc1cc(S(=O)(=O)c2ccc([N+](=O)[O-])cn2)ccc1Br | active: -98.1% |
| Cc1ccc2c(c1)nnn2C1CCN(CC(=O)N(c2ccccc2)c2ccccc2)CC1 | active: -69.9% |
| Cc1cc(C)cc(NC(=S)N2CCN(C(=O)c3ccco3)CC2)c1 | inconclusive: -47.8% |
| CCOC(=O)c1c(-c2cccc([N+](=O)[O-])c2)csc1NC(=O)CCCOc1ccccc1OC | inconclusive: -43.4% |
| Nc1nc(N)nc(Cc2ccccc2O)n1 | inactive: 1.8% |
| CC1CCCCN1S(=O)(=O)c1ccc(C(=O)N(CCCN(C)C)c2nc3cc4c(cc3s2)OCO4)cc1 (stereo not drawn) | active: -69.7% |
| CCCCCCN(C(=O)CCCCCN1C(=O)NC(c2ccc([N+](=O)[O-])cc2)C(C(=O)OCc2ccccc2)=C1C)C(C(=O)NCCCC)c1ccc(OCC(=O)OC)c(C(=O)OC)c1 (stereo not drawn) | inconclusive: -54.2% |
| CCCCOc1ccc(C(=O)Nc2ccc(CN3CCOCC3)cc2)cc1 | inconclusive: -50.8% |
| Cc1ccc(N)cc1NC(=O)CN1CCOCC1 | inconclusive: -49.7% |
| CC(C)COc1ccc(-c2nnc(-c3ccncc3)o2)cc1 | inactive: 78.7% |
| O=C(Cn1cc(COc2ccc(-n3cccc3)cc2)nn1)NS(=O)(=O)c1ccccc1C(F)(F)F | inconclusive: -49.3% |
| Fc1ccccc1N1CCN(c2ncnc3c2nc2n3CCCCC2)CC1 | inactive: 6.58% |
| CC1CCCN(S(=O)(=O)c2ccc(NC(=O)Cn3nnc(-c4ccccc4F)n3)cc2)C1 (stereo not drawn) | inconclusive: -52.4% |
| COc1ccc(C2C(=O)N(C3CCC(C)CC3)CC(=O)N2C2CCCCC2)cc1OC (stereo not drawn) | inconclusive: -48.4% |
| COC(=O)C1=C(C)NC(C)=C(C(=O)OC)C(N2C(=O)CCC2=O)C1 (stereo not drawn) | active: -85.2% |
| FC(F)(F)c1ccc(Cl)c(NC(=S)N/N=C/c2ccccc2C(F)(F)F)c1 | inconclusive: -58.5% |
| O=C(NNc1cc(N2CCCC2)nc(N2CCCC2)n1)c1ccc([N+](=O)[O-])cc1 | inconclusive: -48.6% |
| O=C(COC(=O)c1ccc([N+](=O)[O-])o1)Nc1cccc(S(=O)(=O)N2CCCCC2)c1 | inconclusive: -41.3% |
| O=C(c1ccc2c(=O)n(Cc3ccccc3)c(=S)[nH]c2c1)N1CCOCC1 | inconclusive: -45.6% |
| CS(=O)(=O)N(CC(=O)Nc1ccc(F)cc1F)C1CCCCC1 | inactive: -5.92% |
| Cn1c(CN2CCOCC2)nc2cc(NC(=O)c3ccc(Cl)cc3)ccc21 | active: -84.5% |

| SMILES | activity change, negative = inhibition |
| --- | --- |
| O=c1c2ccccc2sc2c(CO)ccc(NCCN3CCCCC3)c12 | active: -97.9% |
| FC(F)(F)c1nc(Oc2ccccc2)c2ccccc2n1 | inconclusive: -45.5% |
| COc1ccc(NC(=O)Nc2cc(C(=O)O)ccc2N2CC3CC(C2)c2cccc(=O)n2C3)c(OC)c1 (stereo not drawn) | inconclusive: -41.1% |
| CCc1ccc2nc(N3CCN(C(=O)c4ccccc4)CC3)sc2c1 | inconclusive: -50.7% |
| COC(=O)C[C@@H]1C[C@H]2c3cc(NC(=O)Nc4ccccc4F)ccc3O[C@H]2[C@H](CO)O1 | inconclusive: -48.7% |
| COc1ccc(Cl)c(OC)c1C(=O)NC(=O)Nc1c(F)cc(F)cc1F | inconclusive: -48.8% |
| C[C@H](CO)N1C[C@H](C)[C@@H](CN(C)Cc2ccc(Oc3ccccc3)cc2)OCc2cnnn2CCCC1=O | inactive: -12.8% |
| CSc1nc2ccc3nc(NC(=O)C4COc5ccccc5O4)sc3c2s1 (stereo not drawn) | active: -77.8% |
| CC1=NOC(=O)/C1=C\c1ccc(-c2ccc(Cl)cc2Cl)o1 | active: -75% |
| O=C(Nc1nnc(C2CC2)s1)C1CC(=O)N(c2ccc3c(c2)OCCO3)C1 (stereo not drawn) | inconclusive: -52.1% |
| CC(C)(C)c1ccc(NC(=S)NCCc2ccccn2)cc1 | inconclusive: -43.5% |
| CC(C)c1ccccc1NC(=S)NC1CCCCC1 | inconclusive: -42.6% |
| Cc1cc(C(=O)CN2CCCC(C)C2)c(C)n1-c1ccc(F)cc1 (stereo not drawn) | inactive: 2.07% |
| Cc1ccc2c(CC(=O)N3CCc4ccccc43)coc2c1 | inactive: 130% |
| Cc1cc2c(cc1S(=O)(=O)N(CCO)Cc1ccccc1)OCC(=O)N2 | inconclusive: 0% |
| C/C(=N\NC(=O)c1ccc(Cl)c(S(=O)(=O)Nc2ccccc2Cl)c1)c1ccncc1 | inconclusive: -48.3% |
| COCc1cc(S(=O)c2ccc(Cl)cc2)nc(C)n1 (stereo not drawn) | inconclusive: -48.9% |
| CC(NC(=O)c1ccccc1F)c1nnc(SCC(=O)Nc2nnc(C3CC3)s2)n1C (stereo not drawn) | inconclusive: -42.5% |
| O=C1CCCN1c1ccc([N+](=O)[O-])cc1 | inconclusive: -47.7% |
| CCCN1Cc2cccc(C(=O)Nc3ccc(CN4CCCC4)cc3)c2C1=O | inactive: -21.1% |
| O=C(NC1CCCC1)C(c1ccco1)N(C(=O)c1ccco1)c1ccccc1 (stereo not drawn) | inconclusive: -58.9% |

Quoted at random: three compounds from above.

| SMILES | activity change, negative = inhibition |
| --- | --- |
| CC(NC(=O)c1ccccc1F)c1nnc(SCC(=O)Nc2nnc(C3CC3)s2)n1C (stereo not drawn) | inconclusive: -42.5% |
| Cc1cc2c(cc1S(=O)(=O)N(CCO)Cc1ccccc1)OCC(=O)N2 | inconclusive: 0% |
| CCCN1Cc2cccc(C(=O)Nc3ccc(CN4CCCC4)cc3)c2C1=O | inactive: -21.1% |
